# Assay results from the supplement of paper PMC10849652.
# By UniProt entry, the sequences of proteins in these tests, tags left out. Where a name states a change or a piece, a line headed by the entry shows the natural chain unless it says otherwise.
# UniProt Q14980: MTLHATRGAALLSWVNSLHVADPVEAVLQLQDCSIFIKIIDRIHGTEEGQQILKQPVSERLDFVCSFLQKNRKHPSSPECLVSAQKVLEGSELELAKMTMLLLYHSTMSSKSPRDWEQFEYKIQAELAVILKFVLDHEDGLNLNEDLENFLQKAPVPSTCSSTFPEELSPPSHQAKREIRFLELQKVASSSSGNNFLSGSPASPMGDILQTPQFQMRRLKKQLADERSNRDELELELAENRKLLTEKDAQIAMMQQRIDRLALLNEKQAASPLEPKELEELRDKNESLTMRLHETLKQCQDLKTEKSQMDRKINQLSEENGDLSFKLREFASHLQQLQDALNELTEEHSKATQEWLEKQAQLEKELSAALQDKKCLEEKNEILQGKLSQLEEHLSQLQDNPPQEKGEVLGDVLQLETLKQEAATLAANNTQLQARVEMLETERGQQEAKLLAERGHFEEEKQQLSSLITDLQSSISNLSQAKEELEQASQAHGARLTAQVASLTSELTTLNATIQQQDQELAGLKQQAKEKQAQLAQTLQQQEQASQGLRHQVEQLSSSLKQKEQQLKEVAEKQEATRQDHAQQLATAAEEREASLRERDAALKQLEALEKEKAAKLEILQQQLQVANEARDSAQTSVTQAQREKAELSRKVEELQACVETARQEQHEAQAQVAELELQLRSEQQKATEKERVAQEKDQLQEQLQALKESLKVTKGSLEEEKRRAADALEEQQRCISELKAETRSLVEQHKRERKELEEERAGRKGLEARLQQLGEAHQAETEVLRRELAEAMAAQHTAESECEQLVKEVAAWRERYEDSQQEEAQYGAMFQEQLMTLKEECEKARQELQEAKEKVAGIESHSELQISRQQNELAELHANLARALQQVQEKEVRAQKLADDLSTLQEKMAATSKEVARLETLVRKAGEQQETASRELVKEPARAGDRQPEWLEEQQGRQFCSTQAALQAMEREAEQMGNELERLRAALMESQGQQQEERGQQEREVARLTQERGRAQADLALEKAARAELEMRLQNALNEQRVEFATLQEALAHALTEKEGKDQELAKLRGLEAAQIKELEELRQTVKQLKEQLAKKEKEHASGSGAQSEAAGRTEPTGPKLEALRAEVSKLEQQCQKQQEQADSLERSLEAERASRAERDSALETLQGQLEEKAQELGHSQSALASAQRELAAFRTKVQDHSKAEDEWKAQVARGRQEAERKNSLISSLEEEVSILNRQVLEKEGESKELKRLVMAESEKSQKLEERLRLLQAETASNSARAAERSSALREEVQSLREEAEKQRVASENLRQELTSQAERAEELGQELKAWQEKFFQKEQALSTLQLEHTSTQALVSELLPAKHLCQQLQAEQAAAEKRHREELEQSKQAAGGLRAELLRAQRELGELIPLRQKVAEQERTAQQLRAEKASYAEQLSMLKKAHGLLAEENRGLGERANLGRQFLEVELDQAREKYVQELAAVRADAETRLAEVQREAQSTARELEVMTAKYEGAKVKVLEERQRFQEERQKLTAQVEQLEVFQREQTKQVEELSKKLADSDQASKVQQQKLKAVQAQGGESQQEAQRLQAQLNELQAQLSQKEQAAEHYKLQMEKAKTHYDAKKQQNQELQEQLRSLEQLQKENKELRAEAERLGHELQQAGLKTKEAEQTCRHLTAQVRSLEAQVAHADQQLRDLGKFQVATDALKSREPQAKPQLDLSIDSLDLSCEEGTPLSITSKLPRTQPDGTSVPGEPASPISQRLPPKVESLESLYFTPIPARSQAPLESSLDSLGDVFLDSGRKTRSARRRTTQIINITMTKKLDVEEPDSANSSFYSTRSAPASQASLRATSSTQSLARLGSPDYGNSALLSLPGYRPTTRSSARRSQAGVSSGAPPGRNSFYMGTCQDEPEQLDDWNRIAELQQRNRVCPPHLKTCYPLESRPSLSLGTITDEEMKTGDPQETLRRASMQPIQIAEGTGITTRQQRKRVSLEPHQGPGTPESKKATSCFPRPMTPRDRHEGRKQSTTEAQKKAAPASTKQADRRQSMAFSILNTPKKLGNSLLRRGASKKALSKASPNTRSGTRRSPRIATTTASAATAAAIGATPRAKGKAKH
# UniProt Q8WVJ2: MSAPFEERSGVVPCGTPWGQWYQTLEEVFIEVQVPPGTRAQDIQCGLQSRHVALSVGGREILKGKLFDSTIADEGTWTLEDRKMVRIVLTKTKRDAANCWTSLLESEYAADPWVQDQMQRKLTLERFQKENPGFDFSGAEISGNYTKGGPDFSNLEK
# UniProt O00567: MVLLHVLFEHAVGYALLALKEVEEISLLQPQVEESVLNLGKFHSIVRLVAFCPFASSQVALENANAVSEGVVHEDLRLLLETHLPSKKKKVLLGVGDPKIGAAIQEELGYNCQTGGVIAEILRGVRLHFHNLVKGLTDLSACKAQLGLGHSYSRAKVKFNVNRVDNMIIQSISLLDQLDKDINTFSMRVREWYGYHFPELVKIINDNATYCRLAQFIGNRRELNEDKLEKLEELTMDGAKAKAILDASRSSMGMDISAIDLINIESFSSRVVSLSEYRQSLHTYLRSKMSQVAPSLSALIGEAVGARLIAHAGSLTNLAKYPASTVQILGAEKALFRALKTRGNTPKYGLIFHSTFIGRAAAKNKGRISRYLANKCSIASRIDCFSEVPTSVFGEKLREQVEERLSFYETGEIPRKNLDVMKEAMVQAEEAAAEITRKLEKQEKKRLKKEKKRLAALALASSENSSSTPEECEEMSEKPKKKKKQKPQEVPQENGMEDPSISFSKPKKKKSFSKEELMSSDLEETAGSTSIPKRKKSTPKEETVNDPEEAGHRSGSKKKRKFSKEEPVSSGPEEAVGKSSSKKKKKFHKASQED
# UniProt Q9Y2X3: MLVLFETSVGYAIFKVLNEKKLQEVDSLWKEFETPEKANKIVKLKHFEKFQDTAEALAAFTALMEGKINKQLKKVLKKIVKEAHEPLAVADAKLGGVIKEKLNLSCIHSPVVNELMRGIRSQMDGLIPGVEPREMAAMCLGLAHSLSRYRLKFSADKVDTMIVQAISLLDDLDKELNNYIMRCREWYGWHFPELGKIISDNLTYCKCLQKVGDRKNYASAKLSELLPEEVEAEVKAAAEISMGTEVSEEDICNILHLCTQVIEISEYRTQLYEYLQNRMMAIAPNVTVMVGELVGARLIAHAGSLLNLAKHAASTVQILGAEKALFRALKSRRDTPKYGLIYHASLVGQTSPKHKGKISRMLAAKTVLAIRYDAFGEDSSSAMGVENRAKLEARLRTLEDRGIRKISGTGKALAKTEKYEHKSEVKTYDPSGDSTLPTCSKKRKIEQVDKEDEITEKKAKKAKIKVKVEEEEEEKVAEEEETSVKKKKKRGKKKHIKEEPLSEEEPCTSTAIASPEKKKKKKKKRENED
# UniProt Q9Y5B8, whole entry, looked up: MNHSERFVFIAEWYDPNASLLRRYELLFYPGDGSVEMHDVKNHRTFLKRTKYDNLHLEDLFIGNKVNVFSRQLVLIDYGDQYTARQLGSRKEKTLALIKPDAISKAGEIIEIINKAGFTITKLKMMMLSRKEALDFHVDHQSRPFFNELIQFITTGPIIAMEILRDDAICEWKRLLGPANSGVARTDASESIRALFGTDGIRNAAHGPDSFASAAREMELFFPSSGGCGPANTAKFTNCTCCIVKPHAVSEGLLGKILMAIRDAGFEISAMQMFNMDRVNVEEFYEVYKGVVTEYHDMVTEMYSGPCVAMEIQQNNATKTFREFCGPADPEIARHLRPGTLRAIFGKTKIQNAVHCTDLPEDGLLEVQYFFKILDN
# UniProt Q14978: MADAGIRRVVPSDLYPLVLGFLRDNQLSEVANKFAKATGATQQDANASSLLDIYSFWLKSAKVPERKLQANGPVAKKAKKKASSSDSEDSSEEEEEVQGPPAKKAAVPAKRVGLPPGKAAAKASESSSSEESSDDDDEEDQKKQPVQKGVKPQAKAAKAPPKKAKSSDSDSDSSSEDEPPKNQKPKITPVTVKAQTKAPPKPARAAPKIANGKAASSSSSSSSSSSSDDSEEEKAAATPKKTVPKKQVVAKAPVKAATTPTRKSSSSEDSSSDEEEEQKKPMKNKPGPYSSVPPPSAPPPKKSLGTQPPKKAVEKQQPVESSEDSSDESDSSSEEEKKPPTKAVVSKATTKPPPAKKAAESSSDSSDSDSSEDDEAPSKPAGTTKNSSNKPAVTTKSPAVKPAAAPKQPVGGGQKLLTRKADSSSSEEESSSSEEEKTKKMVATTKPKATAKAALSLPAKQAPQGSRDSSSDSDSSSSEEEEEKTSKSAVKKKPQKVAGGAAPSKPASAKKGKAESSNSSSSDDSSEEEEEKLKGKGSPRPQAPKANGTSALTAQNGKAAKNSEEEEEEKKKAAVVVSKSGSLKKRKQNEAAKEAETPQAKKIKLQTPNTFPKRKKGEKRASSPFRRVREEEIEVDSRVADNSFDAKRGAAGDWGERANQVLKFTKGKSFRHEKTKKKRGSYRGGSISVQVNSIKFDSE
# UniProt P78316: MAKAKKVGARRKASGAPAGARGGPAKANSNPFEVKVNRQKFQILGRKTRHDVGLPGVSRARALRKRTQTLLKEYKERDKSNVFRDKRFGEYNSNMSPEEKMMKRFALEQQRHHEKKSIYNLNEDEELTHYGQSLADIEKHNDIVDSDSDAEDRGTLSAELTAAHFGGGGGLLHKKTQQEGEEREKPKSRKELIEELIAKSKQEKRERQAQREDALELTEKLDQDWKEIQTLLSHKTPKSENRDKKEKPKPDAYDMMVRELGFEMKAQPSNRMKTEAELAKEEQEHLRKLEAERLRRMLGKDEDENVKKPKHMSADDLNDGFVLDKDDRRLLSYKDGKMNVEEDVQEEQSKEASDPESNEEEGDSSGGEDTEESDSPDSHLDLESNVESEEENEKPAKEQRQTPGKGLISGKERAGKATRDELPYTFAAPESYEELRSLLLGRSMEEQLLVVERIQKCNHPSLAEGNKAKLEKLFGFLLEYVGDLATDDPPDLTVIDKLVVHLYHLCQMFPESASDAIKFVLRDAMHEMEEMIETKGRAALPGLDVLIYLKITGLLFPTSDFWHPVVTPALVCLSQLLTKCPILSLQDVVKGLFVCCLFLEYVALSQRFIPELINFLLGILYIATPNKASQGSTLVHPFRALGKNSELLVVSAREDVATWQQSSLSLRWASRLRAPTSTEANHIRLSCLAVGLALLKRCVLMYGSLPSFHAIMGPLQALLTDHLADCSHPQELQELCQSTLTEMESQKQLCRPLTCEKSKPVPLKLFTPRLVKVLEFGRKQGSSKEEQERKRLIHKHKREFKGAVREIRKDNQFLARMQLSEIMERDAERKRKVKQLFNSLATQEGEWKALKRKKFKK
# UniProt Q9NZJ9: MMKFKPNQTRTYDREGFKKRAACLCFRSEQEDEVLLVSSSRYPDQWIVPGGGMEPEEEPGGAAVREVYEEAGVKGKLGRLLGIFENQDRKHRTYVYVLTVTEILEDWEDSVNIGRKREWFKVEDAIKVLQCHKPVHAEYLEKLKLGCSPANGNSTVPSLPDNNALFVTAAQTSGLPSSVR
# UniProt P49757: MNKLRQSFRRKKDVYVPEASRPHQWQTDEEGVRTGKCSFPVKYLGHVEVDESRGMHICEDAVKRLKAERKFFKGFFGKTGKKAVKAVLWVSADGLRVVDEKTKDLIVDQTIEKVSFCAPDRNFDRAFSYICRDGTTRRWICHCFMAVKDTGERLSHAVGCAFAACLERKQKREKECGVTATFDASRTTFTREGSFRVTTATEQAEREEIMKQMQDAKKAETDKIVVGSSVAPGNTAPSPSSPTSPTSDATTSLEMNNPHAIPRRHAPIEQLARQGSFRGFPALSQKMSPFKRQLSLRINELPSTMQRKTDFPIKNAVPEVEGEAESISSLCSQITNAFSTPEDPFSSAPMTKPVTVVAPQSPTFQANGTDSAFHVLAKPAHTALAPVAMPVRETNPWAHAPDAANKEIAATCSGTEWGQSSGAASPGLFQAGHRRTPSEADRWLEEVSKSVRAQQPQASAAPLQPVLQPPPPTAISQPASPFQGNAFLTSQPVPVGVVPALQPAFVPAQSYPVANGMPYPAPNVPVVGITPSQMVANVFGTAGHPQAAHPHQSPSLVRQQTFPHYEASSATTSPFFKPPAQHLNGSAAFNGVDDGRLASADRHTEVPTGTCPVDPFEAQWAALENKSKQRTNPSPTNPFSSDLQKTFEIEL
# UniProt Q9Y314: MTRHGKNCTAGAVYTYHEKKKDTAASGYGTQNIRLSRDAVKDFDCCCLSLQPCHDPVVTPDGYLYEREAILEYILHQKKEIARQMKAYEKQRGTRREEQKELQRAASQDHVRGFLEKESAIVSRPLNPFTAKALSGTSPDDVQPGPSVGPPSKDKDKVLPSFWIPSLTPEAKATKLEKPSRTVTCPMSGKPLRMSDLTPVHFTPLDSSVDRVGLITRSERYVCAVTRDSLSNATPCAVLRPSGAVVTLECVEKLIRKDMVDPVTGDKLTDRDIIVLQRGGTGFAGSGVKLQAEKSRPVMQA
# This is one part of the list.
# Compound: C[C@H](Nc1ncnc2nc[nH]c12)c1cc2cccc(Cl)c2c(=O)n1-c1ccccc1 [duvelisib]
# Experiment: log2 fold change, soluble protein after heating vs DMSO (PISA); higher = thermal stabilisation; K562 lysate, 10 uM; active = over 0.2 and 3.5 SD of the protein, either way, in both replicates (recomputed)
# In short: (§1)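 K562 pellets were dounce-homogenised in PBS pH 7.4 with 1 mM MgCl2, and the crude extract at 1 mg/mL protein was treated with 10 μM compound for 30 min. Aliquots were heated for 3 min across 48°C-58°C, pooled, and brought to 0.5% NP-40 at 4°C; soluble protein was the supernatant after 21,000xg for 90 min. Soluble protein was quantified by TMTpro 16plex LC-MS/MS with channel sums equalised, and reported as log2 fold change in thermal stability against DMSO controls, with values from duplicates.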
row,Target,log2 fold change
1,NT5DC2 isoform 2 (UniProt Q9H857),inactive: -0.01
2,NRAS (UniProt P01111),inactive: 0.003
3,NUMA1 (UniProt Q14980),inactive: 0.021
4,NUDCD2 (UniProt Q8WVJ2),inactive: 0.014
5,NUDCD1 (UniProt Q96RS6),inactive: -0.01
6,NOB1 (UniProt Q9ULX3),inactive: -0.033

# Compound: Cc1cc(Nc2cc(CN3CCOCC3)c3nc(C)c(Cc4ccc(Cl)cc4F)n3n2)n[nH]1 [gandotinib]
# Experiment: as above
# In short: as §1
row,Target,log2 fold change
1,NMNAT1 (UniProt Q9HAN9),inactive: -0.013
2,NOP56 (UniProt O00567),inactive: -0.114
3,NOP58 (UniProt Q9Y2X3),inactive: -0.079
4,NSMAF (UniProt Q92636),inactive: -0.017
5,NME7 (UniProt Q9Y5B8),inactive: -0.005
6,NSUN5 isoform 2 (UniProt Q96P11),inactive: -0.018
7,NOLC1 isoform 2 (UniProt Q14978),inactive: 0.057
8,NOP14 (UniProt P78316),inactive: -0.124
9,NSDHL (UniProt Q15738),inactive: 0.18
10,NUDT4 (UniProt Q9NZJ9),inactive: -0.188
11,NSMCE3 (UniProt Q96MG7),inactive: -0.055
12,NSUN6 (UniProt Q8TEA1),inactive: 0.009
13,NUDT16 (UniProt Q96DE0),inactive: 0.021
14,NUMB (UniProt P49757),inactive: 0.097
15,NSFL1C isoform 5 (UniProt Q9UNZ2),inactive: 0.036
16,NUDCD3 (UniProt Q8IVD9),inactive: 0.011
17,NSMCE2 (UniProt Q96MF7),inactive: 0.014
18,NME6 (UniProt O75414),inactive: 0.003
19,NOSIP (UniProt Q9Y314),inactive: 0.017
20,NT5C3A (UniProt Q9H0P0),inactive: -0.021
21,NPM1 (UniProt P06748),inactive: 0.007
22,NUDT7 (UniProt P0C024),inactive: -0.115
23,NUP133 (UniProt Q8WUM0),active: 0.251
24,NT5DC2 isoform 2 (UniProt Q9H857),inactive: 0.021
25,NRAS (UniProt P01111),inactive: 0.004
26,NUMA1 (UniProt Q14980),inactive: -0.024
27,NUDCD2 (UniProt Q8WVJ2),inactive: 0.049
28,NUDCD1 (UniProt Q96RS6),inactive: 0.015
29,NOB1 (UniProt Q9ULX3),inactive: -0.084

# Compound: Cc1cc(Nc2cc(N3CCN(C)CC3)nc(Sc3ccc(NC(=O)C4CC4)cc3)n2)n[nH]1 [tozasertib]
# Experiment: as above
# In short: as §1
row,Target,log2 fold change
1,NMNAT1 (UniProt Q9HAN9),inactive: 0.001
2,NOP56 (UniProt O00567),inactive: -0.037
3,NOP58 (UniProt Q9Y2X3),inactive: -0.039
4,NSMAF (UniProt Q92636),inactive: 0.021
5,NME7 (UniProt Q9Y5B8),inactive: 0.044
6,NSUN5 isoform 2 (UniProt Q96P11),inactive: 0.034
7,NOLC1 isoform 2 (UniProt Q14978),inactive: 0.004
8,NOP14 (UniProt P78316),inactive: -0.007
9,NSDHL (UniProt Q15738),inactive: 0.007
10,NUDT4 (UniProt Q9NZJ9),inactive: -0.022
11,NSMCE3 (UniProt Q96MG7),inactive: -0.032
12,NSUN6 (UniProt Q8TEA1),inactive: -0.025
13,NUDT16 (UniProt Q96DE0),inactive: 0.038
14,NUMB (UniProt P49757),inactive: 0.047
15,NSFL1C isoform 5 (UniProt Q9UNZ2),inactive: 0.017
16,NUDCD3 (UniProt Q8IVD9),inactive: 0.017
17,NSMCE2 (UniProt Q96MF7),inactive: 0.066
18,NME6 (UniProt O75414),inactive: 0.068
19,NOSIP (UniProt Q9Y314),inactive: -0.053
20,NT5C3A (UniProt Q9H0P0),inactive: -0.015
21,NPM1 (UniProt P06748),inactive: 0.01
22,NUDT7 (UniProt P0C024),inactive: -0.034
23,NUP133 (UniProt Q8WUM0),inactive: 0.042
24,NT5DC2 isoform 2 (UniProt Q9H857),inactive: -0.019
25,NRAS (UniProt P01111),inactive: -0.013
26,NUMA1 (UniProt Q14980),inactive: 0
27,NUDCD2 (UniProt Q8WVJ2),inactive: 0.031
28,NUDCD1 (UniProt Q96RS6),inactive: 0.007
29,NOB1 (UniProt Q9ULX3),inactive: 0.011

# Compound: Cc1ccc(-n2nc(C(C)(C)C)cc2NC(=O)Nc2ccc(OCCN3CCOCC3)c3ccccc23)cc1 [doramapimod]
# Experiment: as above
# In short: as §1
row,Target,log2 fold change
1,NMNAT1 (UniProt Q9HAN9),inactive: -0.025
2,NOP56 (UniProt O00567),inactive: -0.041
3,NOP58 (UniProt Q9Y2X3),inactive: -0.027
4,NSMAF (UniProt Q92636),inactive: 0.023
5,NME7 (UniProt Q9Y5B8),inactive: -0.027
6,NSUN5 isoform 2 (UniProt Q96P11),inactive: -0.018
7,NOLC1 isoform 2 (UniProt Q14978),inactive: -0.006
8,NOP14 (UniProt P78316),inactive: -0.008
9,NSDHL (UniProt Q15738),inactive: 0.137
10,NUDT4 (UniProt Q9NZJ9),inactive: -0.076
11,NSMCE3 (UniProt Q96MG7),inactive: -0.004
12,NSUN6 (UniProt Q8TEA1),inactive: -0.018
13,NUDT16 (UniProt Q96DE0),inactive: -0.003
14,NUMB (UniProt P49757),inactive: 0.125
15,NSFL1C isoform 5 (UniProt Q9UNZ2),inactive: -0.004
16,NUDCD3 (UniProt Q8IVD9),inactive: 0.038
17,NSMCE2 (UniProt Q96MF7),inactive: 0.009
18,NME6 (UniProt O75414),inactive: -0.022
19,NOSIP (UniProt Q9Y314),inactive: 0.013
20,NT5C3A (UniProt Q9H0P0),inactive: -0.008
21,NPM1 (UniProt P06748),inactive: -0.042
22,NUDT7 (UniProt P0C024),inactive: -0.015
23,NUP133 (UniProt Q8WUM0),inactive: 0.061
24,NT5DC2 isoform 2 (UniProt Q9H857),inactive: -0.029
25,NRAS (UniProt P01111),inactive: -0.049
26,NUMA1 (UniProt Q14980),inactive: 0.029
27,NUDCD2 (UniProt Q8WVJ2),inactive: -0.008
28,NUDCD1 (UniProt Q96RS6),inactive: -0.006
29,NOB1 (UniProt Q9ULX3),inactive: -0.023
